Data as given in PubChem BioAssay AID504793 (Drosophila RNAi Screening Center, 2011)
Test: 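Whole-genome screen for parts of the DNA damage checkpoint at G2/M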 (primary screen). Cells: Drosophila S2R+ cells. Knock-down reagent: long dsRNA against Drosophila genes, about 0.25 µg dsRNA per well. Duration: 4 days of dsRNA, then 4 hours of drug before read-out. Treatment: doxorubicin 0.5 µM for 4 hours to cause double-strand breaks, in cells also given a low, harmless dose of dsRNA against nbs to sensitise the assay. Detection: 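Per-well count of mitotic cells stained for phospho-histone H3 after doxorubicin exposure, used as mitotic index; counts are raw and not normalised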. Scale: mitotic cells: higher = more cells in mitosis, weaker G2 arrest. Call rule: 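Genes are called active only when high mitotic counts were reproduced with independent dsRNAs and mitosis was checked for delay without damage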. Calls: active = confirmed in follow-up tests; inactive = not confirmed.
The screen tested about 23,000 reagents; shown is a random part of those with a known target gene and a result. In the full data, 62 (0.27%) are marked active. 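Calls come from follow-up tests whose scores are not deposited, so confirmed genes may have low counts here; counts are not normalised per plate.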 Raw values are not corrected between plates. Entries without a mark were called inactive. Reagents against one gene are numbered here.

CG30183 #1 | mitotic cells, replicate 1: 4
CG30183 #2 | mitotic cells, replicate 1: 3
CG32027 (retired record) | mitotic cells, replicate 1: 12
sdt (stardust) #1 | mitotic cells, replicate 1: 8
sdt (stardust) #2 | mitotic cells, replicate 1: 10
sdt (stardust) #3 | mitotic cells, replicate 1: 10
sdt (stardust) #4 | mitotic cells, replicate 1: 16
sdt (stardust) #5 | mitotic cells, replicate 1: 12
sdt (stardust) #6 | mitotic cells, replicate 1: 11
sdt (stardust) #7 | mitotic cells, replicate 1: 7
CG1368 #1 | mitotic cells, replicate 1: 7
CG1368 #2 | mitotic cells, replicate 1: 4
Oamb (Octopamine receptor in mushroom bodies) #1 | mitotic cells, replicate 1: 10
Oamb (Octopamine receptor in mushroom bodies) #2 | mitotic cells, replicate 1: 4
Oamb (Octopamine receptor in mushroom bodies) #3 | mitotic cells, replicate 1: 11
